Some of these results come from one statement about several compounds together.
What was measured:
Assay in all cases: greenhouse post-emergence herbicidal test
Details in all cases: post-emergence method, application rate 500 g/ha, scale from 0 to 100
[1] = tested on: ECHCG; format: in vivo, Echinocloa crus-galli
Text: (§1) The culture containers used were plastic flowerpots containing loamy sand with approximately 3.0% of humus as the substrate. The seeds of the test plants were sown separately for each species.
(§2) For the post-emergence treatment, the test plants were first grown to a height of 3 to 15 cm, depending on the plant habit, and only then treated with the active ingredients which had been suspended or emulsified in water. For this purpose, the test plants were either sown directly and grown in the same containers, or they were first grown separately as seedlings and transplanted into the test containers a few days prior to treatment.
(§3) Depending on the species, the plants were kept at 10-25° C. or 20-35° C., respectively. The test period extended over 2 to 4 weeks. During this time, the plants were tended, and their response to the individual treatments was evaluated.
(§4) Evaluation was carried out using a scale from 0 to 100. 100 means no emergence of the plants, or complete destruction of at least the aerial moieties, and 0 means no damage, or normal course of growth. A good herbicidal activity is given at values of at least 80 and a very good herbicidal activity is given at values of at least 90.
(§5) The plants used in the greenhouse experiments were of the following species: […]

[2] = tested on: SETVI; format: in vivo, Setaria viridis
Text: as §1, §2, §3, §4, §5

[3] = tested on: ABUTH; format: in vivo, Abutilon theophrasti
Text: as §1, §2, §3, §4, §5

[4] = tested on: AMARE; format: in vivo, Amaranthus retroflexus
Text: as §1, §2, §3, §4, §5

Compound | herbicidal activity against ECHCG [1] | herbicidal activity against SETVI [2] | herbicidal activity against ABUTH [3] | herbicidal activity against AMARE [4]
C#CCNC(=O)C=C(C)CC1OCC(CC2OC2C(C)C(C)O)C2OC(C)(C)OC12 (stereo not shown) [compound 31] | very good herbicidal activity (a very good herbicidal activity is given at values of at least 90) | very good herbicidal activity (a very good herbicidal activity is given at values of at least 90) | very good herbicidal activity (a very good herbicidal activity is given at values of at least 90) | very good herbicidal activity (a very good herbicidal activity is given at values of at least 90)
C/C(=C\C(=O)NCC=C(Cl)Cl)C[C@@H]1OC[C@H](C[C@@H]2O[C@H]2[C@@H](C)[C@H](C)O)[C@@H](O)[C@H]1O [compound 21] | good herbicidal activity (A good herbicidal activity is given at values of at least 80) | very good herbicidal activity (a very good herbicidal activity is given at values of at least 90) | very good herbicidal activity (a very good herbicidal activity is given at values of at least 90) | very good herbicidal activity (a very good herbicidal activity is given at values of at least 90)
C#CCNC(=O)C=C(C)CC1OCC(CC2OC2C(C)C(C)O)C2OC(OCC)OC12 (stereo not shown) [compound 33] | very good herbicidal activity (a very good herbicidal activity is given at values of at least 90) | very good herbicidal activity (a very good herbicidal activity is given at values of at least 90) | very good herbicidal activity (a very good herbicidal activity is given at values of at least 90) | very good herbicidal activity (a very good herbicidal activity is given at values of at least 90)
C=C(Cl)CNC(=O)C=C(C)CC1OCC(CC2OC2C(C)C(C)O)C2OC(C)(C)OC12 (stereo not shown) [compound 24] | very good herbicidal activity (a very good herbicidal activity is given at values of at least 90) | very good herbicidal activity (a very good herbicidal activity is given at values of at least 90) | very good herbicidal activity (a very good herbicidal activity is given at values of at least 90) | very good herbicidal activity (a very good herbicidal activity is given at values of at least 90)
C=C(F)CNC(=O)/C=C(\C)C[C@@H]1OC[C@H](C[C@@H]2O[C@H]2[C@@H](C)[C@H](C)O)[C@@H](O)[C@H]1O [compound 22] | very good herbicidal activity (a very good herbicidal activity is given at values of at least 90) | very good herbicidal activity (a very good herbicidal activity is given at values of at least 90) | very good herbicidal activity (a very good herbicidal activity is given at values of at least 90) | very good herbicidal activity (a very good herbicidal activity is given at values of at least 90)
C/C(=C\C(=O)NCC(F)(F)F)C[C@@H]1OC[C@H](C[C@@H]2O[C@H]2[C@@H](C)[C@H](C)OC=O)[C@@H](OC=O)[C@H]1OC=O [compound 50] | very good herbicidal activity (a very good herbicidal activity is given at values of at least 90) | very good herbicidal activity (a very good herbicidal activity is given at values of at least 90) | very good herbicidal activity (a very good herbicidal activity is given at values of at least 90) | very good herbicidal activity (a very good herbicidal activity is given at values of at least 90)
C#CCNC(=O)C=C(C)CC1OCC(CC2OC2C(C)C(C)=O)C2OC(OCC)OC12 (stereo not shown) [compound 48] | very good herbicidal activity (a very good herbicidal activity is given at values of at least 90) | very good herbicidal activity (a very good herbicidal activity is given at values of at least 90) | very good herbicidal activity (a very good herbicidal activity is given at values of at least 90) | very good herbicidal activity (a very good herbicidal activity is given at values of at least 90)
C/C(=C\C(=O)N1CCN(C)C1=O)C[C@@H]1OC[C@H](C[C@@H]2O[C@H]2[C@@H](C)[C@H](C)O)[C@@H](O)[C@H]1O [compound 38] | very good herbicidal activity (a very good herbicidal activity is given at values of at least 90) | very good herbicidal activity (a very good herbicidal activity is given at values of at least 90) | very good herbicidal activity (a very good herbicidal activity is given at values of at least 90) | very good herbicidal activity (a very good herbicidal activity is given at values of at least 90)
C/C(=C\C(=O)NCCF)C[C@@H]1OC[C@H](C[C@@H]2O[C@H]2[C@@H](C)[C@H](C)O)[C@@H](O)[C@H]1O [compound 1] | very good herbicidal activity (a very good herbicidal activity is given at values of at least 90) | very good herbicidal activity (a very good herbicidal activity is given at values of at least 90) | very good herbicidal activity (a very good herbicidal activity is given at values of at least 90) | very good herbicidal activity (a very good herbicidal activity is given at values of at least 90)
CC(=CC(=O)NCC(F)(F)F)CC1OCC(CC2OC2C(C)C(C)O)C2OC(C)(C)OC12 (stereo not shown) [compound 15] | very good herbicidal activity (a very good herbicidal activity is given at values of at least 90) | very good herbicidal activity (a very good herbicidal activity is given at values of at least 90) | very good herbicidal activity (a very good herbicidal activity is given at values of at least 90) | very good herbicidal activity (a very good herbicidal activity is given at values of at least 90)
CC(=CC(=O)NCCF)CC1OCC(CC2OC2C(C)C(C)O)C2OC(C)(C)OC12 (stereo not shown) [compound 13] | very good herbicidal activity (a very good herbicidal activity is given at values of at least 90) | very good herbicidal activity (a very good herbicidal activity is given at values of at least 90) | very good herbicidal activity (a very good herbicidal activity is given at values of at least 90) | very good herbicidal activity (a very good herbicidal activity is given at values of at least 90)
C/C(=C\C(=O)NCC(F)F)C[C@@H]1OC[C@H](C[C@@H]2O[C@H]2[C@@H](C)[C@H](C)O)[C@@H](O)[C@H]1O [compound 2] | good herbicidal activity (A good herbicidal activity is given at values of at least 80) | very good herbicidal activity (a very good herbicidal activity is given at values of at least 90) | very good herbicidal activity (a very good herbicidal activity is given at values of at least 90) | very good herbicidal activity (a very good herbicidal activity is given at values of at least 90)
C/C(=C\C(=O)NCC(F)(F)F)C[C@@H]1OC[C@H](C[C@@H]2O[C@H]2[C@@H](C)[C@H](C)O)[C@@H](OC=O)[C@H]1OC=O [compound 12] | very good herbicidal activity (a very good herbicidal activity is given at values of at least 90) | very good herbicidal activity (a very good herbicidal activity is given at values of at least 90) | very good herbicidal activity (a very good herbicidal activity is given at values of at least 90) | very good herbicidal activity (a very good herbicidal activity is given at values of at least 90)
CC(=CC(=O)N1CCN(C)C1=O)CC1OCC(CC2OC2C(C)C(C)O)C2OC(C)(C)OC12 (stereo not shown) [compound 41] | – | very good herbicidal activity (a very good herbicidal activity is given at values of at least 90) | very good herbicidal activity (a very good herbicidal activity is given at values of at least 90) | very good herbicidal activity (a very good herbicidal activity is given at values of at least 90)
C/C(=C\C(=O)N1CC(C(F)(F)F)OC1=O)C[C@@H]1OC[C@H](C[C@@H]2O[C@H]2[C@@H](C)[C@H](C)O)[C@@H](O)[C@H]1O (stereo partly shown) [compound 36] | – | very good herbicidal activity (a very good herbicidal activity is given at values of at least 90) | very good herbicidal activity (a very good herbicidal activity is given at values of at least 90) | very good herbicidal activity (a very good herbicidal activity is given at values of at least 90)

— US20220251074A1, “HERBICIDAL AMIDES” (BASF SE, priority 2019, published 2022)
